# Measured values reported in PubChem BioAssay AID2685 (National Center for Advancing Translational Sciences (NCATS), 2010).
# The other results are listed elsewhere or left out. These are further read-outs of the screen, such as a control signal, another cell line or another target. No call is given for them. Compounds called inactive in the main read-out are mostly missing here. Words in brackets tell the shape of the fitted curve; partial curves, single points and poor fits give uncertain potencies.
# Experiment: qHTS Assay for Lipid Storage Modulators in Drosophila S3 Cells;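 on cell number change: cells counted by Cell Tracker Red CMTPX staining in the red channel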
# Conditions: BODIPY lipid droplet fluorescence, 18-24 h; for cell number change: measured here: cell count max response, cells fed with added oleic acid
# Method in brief: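 Drosophila S3 cells loaded with oleic acid (400 uM, as added) and compounds at several concentrations; lipid droplets imaged by 488-nm laser-scanning cytometry, 500–530 nm intensity and object ratio to cell channel. Percent activity normalized to 20 uM Triacsin C.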
# [1] = measured here: lipid fluorescence (Fed channel) AC50, cells fed with added oleic acid
# [2] = measured here: cell number channel AC50, cells fed with added oleic acid
Compound,cell number change [%],AC50 [1],AC50 [2]
COc1ccc(CCn2c(=O)c3cccnc3n(Cc3cccc([N+](=O)[O-])c3)c2=O)cc1OC,14.1,"0.164 µM [rising, full curve]",–
Cc1cc(C)c(C)c(OCC(=O)O/N=C(\N)c2ccccn2)c1,–,"6.51 µM [rising, single point]","2.31 µM [rising, single point]"
Cc1ccc2c(c1)NC(=O)C(CC(=O)Nc1ccc(CN3CCC(C)CC3)cc1)O2 (centres undefined),35,"20.6 µM [rising, single point]","29.1 µM [rising, single point]"
CC(C)(C)OC(=O)N[C@@H](Cc1ccccc1)c1nnc(S(=O)(=O)Cc2cccc(F)c2)o1,-96.3,"20.6 µM [falling, partial curve]","20.6 µM [falling, partial curve]"
CCOC(=O)c1c(C)[nH]c(C(=O)O)c1C,77.6,"2.06 µM [rising, partial curve]","23.1 µM [rising, partial curve]"
O=S(=O)(Nc1ccccc1N1CCCCC1)c1ccccc1,17.1,"0.82 µM [rising, full curve, poor fit]","0.461 µM [rising, full curve]"
CC(=O)C1=C(O)C(=O)OC1c1ccc(Cl)cc1 (centres undefined),-18.4,"14.6 µM [falling, partial curve, poor fit]",–
CCN(CC)CC(=O)Nc1sc(C)cc1C(=O)c1ccc(C)cc1,-7.61,"13 µM [rising, partial curve]",–
Cc1nc(CC(=O)N2CCN(c3cccc(C)c3C)CC2)cs1,31.5,"23.1 µM [rising, single point]","3.66 µM [rising, single point]"
Cc1ccccc1C(=O)N1CCC(C(=O)Nc2sccc2C(N)=O)CC1,5.09,"29.1 µM [rising, single point]",–
CCc1noc(C)c1C(=O)NNC(=O)COc1ccc(C)cc1,6,"0.184 µM [falling, full curve, poor fit]",–
CNC(=O)CO/N=C/c1ccc(N(C)C)cc1,12.8,"6.51 µM [falling, single point]",–
COc1ccc(CCNC(=O)C2CCN(S(=O)(=O)c3ccc(-n4cnnn4)cc3)CC2)cc1OC,-0.231,"0.58 µM [falling, single point]",–
COc1cccc(CNC(=O)CCS(=O)(=O)c2ccc3c(c2)NC(=O)CS3)c1,-14.2,"20.6 µM [rising, single point]",–
O=C(c1cccs1)N1CCCC(c2nc3c(nnn3Cc3cccc(Cl)c3)c(=O)[nH]2)C1 (centres undefined),7.83,–,–
COc1ccccc1C(=O)Nc1ccc2c(c1)C(=O)NC2=O,-1.2,"29.1 µM [falling, single point]",–
O=C(Cc1cccs1)NCc1ccc(Cl)cc1,-6.61,–,–
COc1ccc(N(CC(=O)NCCc2ccccc2)C(=O)c2csnn2)cc1,-11.1,–,–
CC(C)[C@H](NC(=O)[C@H](Cc1ccccc1)n1c(=O)[nH]c2ccccc2c1=O)C(=O)N[C@@H](Cc1ccccc1)C(=O)O,-4.53,"0.517 µM [falling, single point]",–

Compound,cell number change [%],AC50 [1],AC50 [2]
CCN(c1c(C)n(C)n(-c2ccccc2)c1=O)S(C)(=O)=O,–,–,"5.17 µM [falling, partial curve]"
O=S(=O)(Nc1cc(F)ccc1F)c1cccc2nonc12,-11.3,"31.6 µM [rising, single point]",–
COc1ccc(/C=C/C(=O)NCC(=O)N/N=C/c2cccs2)cc1,14.7,–,"6.51 µM [rising, single point]"
CC(=O)Nc1ccc(Nc2nc3ccccc3n3cnnc23)cc1,0.458,"0.0651 µM [rising, full curve]",–
O=C(Nc1nnc(C2CC2)s1)C1CCCCC1,42.4,"23.1 µM [rising, partial curve, poor fit]","32.6 µM [rising, partial curve, poor fit]"
C=CCSc1nc(N)c2c3c(sc2n1)CN(C)CC3,45,–,"20.6 µM [rising, single point]"
COc1ccc(CCNC(=O)c2ccc(CS(=O)(=O)c3ccc(Br)cc3)o2)cc1OC,23.6,–,"0.00411 µM [rising, full curve, poor fit]"
CCN1CCN(CCCN(Cc2ccco2)C(=S)Nc2ccc(Cl)cc2)CC1,51.9,–,–
CN1CCN(c2ccc(NC(=O)COc3ccc(Cl)cc3Cl)cc2)CC1,0.0978,–,–
CCNc1nc(NCC)nc(OCCNS(=O)(=O)c2ccccc2)n1,15.2,"0.411 µM [rising, partial curve, poor fit]","0.461 µM [rising, partial curve, poor fit]"
O=C(COC(=O)c1n[nH]c2ccccc12)Nc1ccccc1,–,"0.651 µM [falling, single point]","6.51 µM [rising, single point]"
C=CCn1c(C)cc(C(=O)CSc2nnc3c(Cl)cc(Cl)cn23)c1C,31.7,–,"0.13 µM [rising, full curve, poor fit]"
c1ccc(OCCOc2cccc3cccnc23)cc1,-6.11,–,–
Cc1ccc(NC(=O)N/C=C/c2ccco2)cc1,–,–,"0.082 µM [rising, full curve, poor fit]"
O=S1(=O)CCC(n2nccc2-c2ccccc2)C1 (centres undefined),-1.42,–,–
COc1ccc(/C(O)=C2/C(=O)C(=O)N(c3ccccn3)C2c2ccc(OC)c(OC)c2)cc1 (centres undefined),6.08,–,–
COC(=O)c1c(/N=C/NOCc2ccc(Cl)cc2)sc2c1CCN(c1ncc(C(F)(F)F)cc1Cl)C2,153,–,"20.6 µM [rising, single point]"
O=c1[nH]c(CSc2nc3ccccc3[nH]2)nc2c1cnn2-c1ccccc1,-2.25,"11.6 µM [falling, partial curve]",–
OC(COc1cccc2ccccc12)CN1CCN(c2cccc(Cl)c2)CC1 (centres undefined),-62.2,"4.61 µM [falling, partial curve]","29.1 µM [falling, single point]"

# Complete entries, quoted from the list:
# `COc1ccc(CCn2c(=O)c3cccnc3n(Cc3cccc([N+](=O)[O-])c3)c2=O)cc1OC` in the list: cell number change [%]: 14.1; AC50 [1]: 0.164 µM [rising, full curve]
# `Cc1cc(C)c(C)c(OCC(=O)O/N=C(\N)c2ccccn2)c1` in the list: AC50 [1]: 6.51 µM [rising, single point]; AC50 [2]: 2.31 µM [rising, single point]
